Values of other authors in patent US10485792B2, “Sustained release delivery systems for the prevention and treatment of head and neck cancers” (HADASIT MEDICAL RESEARCH SERVICES & DEVELOPMENT LIMITED, priority 2009, dated 2019).
For at least one compound, name, drawing or mass did not settle the structure.

System: carcinogen-induced SCCs
Conditions: chronic administration; cited from earlier work

For `CO[C@H]1C[C@@H]2CC[C@@H](C)[C@@](O)(O2)C(=O)C(=O)N2CCCC[C@H]2C(=O)O[C@H]([C@H](C)C[C@@H]2CC[C@@H](O)[C@H](OC)C2)CC(=O)[C@H](C)/C=C(\C)[C@@H](O)[C@@H](OC)C(=O)[C@H](C)C[C@H](C)/C=C/C=C/C=C/1C` [Rapamycin], the “Malignant conversion of pre-cancerous lesions” value is listed as “halts the malignant conversion of pre-cancerous lesions” and the “Regression of advanced carcinogen-induced SCCs” value is listed as “promotes the regression of advanced carcinogen-induced SCCs”.
